One substance from article PMC8437434 can be followed below.

Protein sequences, listed by entry. Tags and fused reporters are not part of them. Lines headed by an entry give the natural chain unless they say otherwise; changes in a name come on top. Chains listed by the source or under a name are the forms on record and can include a tag or linker.
preformed tau^4R fibrils (P10636, form named): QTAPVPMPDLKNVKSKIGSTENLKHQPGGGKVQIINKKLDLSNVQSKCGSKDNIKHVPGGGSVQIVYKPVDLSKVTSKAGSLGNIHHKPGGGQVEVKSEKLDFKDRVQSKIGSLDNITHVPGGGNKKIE
UniProt O60884: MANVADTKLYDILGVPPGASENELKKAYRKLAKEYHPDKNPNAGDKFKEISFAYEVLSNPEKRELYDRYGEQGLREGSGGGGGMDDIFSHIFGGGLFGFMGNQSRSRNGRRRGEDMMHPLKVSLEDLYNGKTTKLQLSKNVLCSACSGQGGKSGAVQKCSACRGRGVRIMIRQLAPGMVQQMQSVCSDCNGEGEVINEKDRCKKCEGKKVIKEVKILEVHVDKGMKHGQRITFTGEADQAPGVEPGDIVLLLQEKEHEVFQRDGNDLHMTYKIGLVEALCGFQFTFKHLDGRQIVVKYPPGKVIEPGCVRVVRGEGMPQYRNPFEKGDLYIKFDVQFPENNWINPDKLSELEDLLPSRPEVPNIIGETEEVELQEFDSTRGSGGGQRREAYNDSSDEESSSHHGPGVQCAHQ

Results are given in words; binding and its absence hold for the method and conditions named. Some results given as binding are weak or reduced against the parent protein; the word gives no strength.

Experiment [1] concerns the target preformed tau^4R fibrils (UniProt P10636). Briefly: negative stain electron microscopy; preformed tau fibers incubated with chaperone at 1:1 molar ratio; uranyl formate stain; both purified.
The target is the same in experiment [2]. In words: co-sedimentation; 10 µM preformed tau^4R fibers with 10 µM chaperone, 20 min 37 °C, 50 mM HEPES pH 7.4, 50 mM KCl; centrifuged 16,900 g 30 min; supernatant and pellet on SDS-PAGE; both purified.

Regarding DNAJA2 (from UniProt O60884 1-412), the binding entry with preformed tau^4R fibrils [1] and with preformed tau^4R fibrils [2] was “binds” in each case.
